2 molecules from doi:10.1101/715409 (bioRxiv, 2019) can be followed below.

No constants are given. Whether binding was seen depends on the method and setting. Binding seen in cells or lysates may run through a third protein. Some entries that bind do so weakly or less than the wild type. Tags and fused reporters may be left off the sequences shown.

The target of test [1] is T1, Boi1CRU (Saccharomyces cerevisiae) (UniProt P38041).
T1 sequence: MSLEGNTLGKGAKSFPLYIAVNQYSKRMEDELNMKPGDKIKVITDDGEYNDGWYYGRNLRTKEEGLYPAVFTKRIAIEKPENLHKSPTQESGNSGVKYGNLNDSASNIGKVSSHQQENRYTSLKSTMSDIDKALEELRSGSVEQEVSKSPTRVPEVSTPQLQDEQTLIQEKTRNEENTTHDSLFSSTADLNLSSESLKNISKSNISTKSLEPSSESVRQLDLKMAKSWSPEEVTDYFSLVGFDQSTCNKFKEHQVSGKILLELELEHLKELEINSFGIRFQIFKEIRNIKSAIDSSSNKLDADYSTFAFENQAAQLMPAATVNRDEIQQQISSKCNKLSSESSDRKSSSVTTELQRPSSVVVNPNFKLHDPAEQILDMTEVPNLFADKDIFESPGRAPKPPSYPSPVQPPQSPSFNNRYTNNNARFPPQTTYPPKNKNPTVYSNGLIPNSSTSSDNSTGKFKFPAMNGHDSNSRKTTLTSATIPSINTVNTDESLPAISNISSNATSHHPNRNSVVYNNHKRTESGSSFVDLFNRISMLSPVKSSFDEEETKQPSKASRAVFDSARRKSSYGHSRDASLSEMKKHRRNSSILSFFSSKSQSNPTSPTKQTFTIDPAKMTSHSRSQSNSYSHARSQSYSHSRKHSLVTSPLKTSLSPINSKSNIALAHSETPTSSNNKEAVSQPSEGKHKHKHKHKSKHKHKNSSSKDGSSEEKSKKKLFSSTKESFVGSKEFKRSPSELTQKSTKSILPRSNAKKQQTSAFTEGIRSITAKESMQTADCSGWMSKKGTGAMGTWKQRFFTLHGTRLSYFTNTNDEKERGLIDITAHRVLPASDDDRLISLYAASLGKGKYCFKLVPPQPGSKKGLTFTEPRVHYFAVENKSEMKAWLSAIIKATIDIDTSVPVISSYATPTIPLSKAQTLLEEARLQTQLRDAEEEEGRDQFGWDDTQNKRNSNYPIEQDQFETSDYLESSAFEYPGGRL
Description: split reporter.

The target in test [2] is T2, Boi1_(Δ86-178)CRU (Saccharomyces cerevisiae) (UniProt P38041).
T2 sequence: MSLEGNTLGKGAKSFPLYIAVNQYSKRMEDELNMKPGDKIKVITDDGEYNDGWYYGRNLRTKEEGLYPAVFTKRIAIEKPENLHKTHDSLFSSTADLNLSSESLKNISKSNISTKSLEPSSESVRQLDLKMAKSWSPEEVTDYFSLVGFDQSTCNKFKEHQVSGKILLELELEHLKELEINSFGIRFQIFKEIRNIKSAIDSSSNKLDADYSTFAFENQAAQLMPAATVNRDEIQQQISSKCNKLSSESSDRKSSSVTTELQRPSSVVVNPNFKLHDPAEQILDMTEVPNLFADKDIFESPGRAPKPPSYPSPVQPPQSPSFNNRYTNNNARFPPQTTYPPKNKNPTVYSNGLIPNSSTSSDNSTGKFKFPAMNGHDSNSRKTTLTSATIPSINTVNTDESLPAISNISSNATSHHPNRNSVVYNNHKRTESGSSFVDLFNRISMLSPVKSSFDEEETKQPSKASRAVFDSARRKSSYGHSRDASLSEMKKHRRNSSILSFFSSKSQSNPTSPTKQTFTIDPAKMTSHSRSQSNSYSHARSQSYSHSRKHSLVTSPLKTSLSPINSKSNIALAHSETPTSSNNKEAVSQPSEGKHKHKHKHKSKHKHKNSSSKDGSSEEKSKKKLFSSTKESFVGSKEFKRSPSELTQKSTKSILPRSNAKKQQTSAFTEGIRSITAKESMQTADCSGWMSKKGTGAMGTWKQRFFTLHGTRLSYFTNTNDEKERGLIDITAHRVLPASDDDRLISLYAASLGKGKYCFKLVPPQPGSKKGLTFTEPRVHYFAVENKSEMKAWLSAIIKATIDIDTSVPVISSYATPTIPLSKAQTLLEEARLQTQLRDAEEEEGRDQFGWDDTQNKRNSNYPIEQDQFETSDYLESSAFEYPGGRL
Description: split reporter.

Test [3] deals with T3, GST fusion to Bni1 (1-854) (Saccharomyces cerevisiae) (UniProt P41832).
T3 sequence: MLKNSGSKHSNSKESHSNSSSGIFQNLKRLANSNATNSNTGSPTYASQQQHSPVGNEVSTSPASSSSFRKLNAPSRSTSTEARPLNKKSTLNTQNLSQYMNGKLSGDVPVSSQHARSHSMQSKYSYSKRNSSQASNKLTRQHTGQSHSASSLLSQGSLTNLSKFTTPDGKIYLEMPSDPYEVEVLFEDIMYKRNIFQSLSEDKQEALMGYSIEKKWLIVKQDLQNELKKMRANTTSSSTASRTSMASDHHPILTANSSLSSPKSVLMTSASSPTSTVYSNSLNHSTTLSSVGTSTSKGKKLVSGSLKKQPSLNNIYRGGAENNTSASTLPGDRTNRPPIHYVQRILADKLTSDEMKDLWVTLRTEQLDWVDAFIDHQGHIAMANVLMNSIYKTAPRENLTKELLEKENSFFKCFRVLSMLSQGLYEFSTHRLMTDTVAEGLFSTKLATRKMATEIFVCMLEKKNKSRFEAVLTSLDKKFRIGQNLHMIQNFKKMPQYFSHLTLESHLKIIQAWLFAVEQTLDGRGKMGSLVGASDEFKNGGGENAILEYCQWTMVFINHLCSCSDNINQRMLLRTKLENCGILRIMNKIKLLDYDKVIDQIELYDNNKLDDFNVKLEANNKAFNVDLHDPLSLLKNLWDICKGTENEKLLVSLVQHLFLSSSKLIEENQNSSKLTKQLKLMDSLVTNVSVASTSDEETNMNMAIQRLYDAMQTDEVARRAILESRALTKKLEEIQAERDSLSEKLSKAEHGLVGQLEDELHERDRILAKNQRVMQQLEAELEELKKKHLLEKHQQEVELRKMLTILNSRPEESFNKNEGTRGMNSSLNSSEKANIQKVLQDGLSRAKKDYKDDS
Nature of the test: pull-down.

B1: Nub-Bem1 (protein, UniProt P29366 1-551)
chain: MLKNFKLSKRDSNGSKGRITSADISTPSHDNGSVIKHIKTVPVRYLSSSSTPVKSQRDSSPKNRHNSKDITSPEKVIKAKYSYQAQTSKELSFMEGEFFYVSGDEKDWYKASNPSTGKEGVVPKTYFEVFDRTKPSSVNGSNSSSRKVTNDSLNMGSLYAIVLYDFKAEKADELTTYVGENLFICAHHNCEWFIAKPIGRLGGPGLVPVGFVSIIDIATGYATGNDVIEDIKSVNLPTVQEWKSNIARYKASNISLGSVEQQQQQSITKPQNKSAKLVDGELLVKASVESFGLEDEKYWFLVCCELSNGKTRQLKRYYQDFYDLQVQLLDAFPAEAGKLRDAGGQWSKRIMPYIPGPVPYVTNSITKKRKEDLNIYVADLVNLPDYISRSEMVHSLFVVLNNGFDREFERDENQNNIKTLQENDTATFATASQTSNFASTNQDNTLTGEDLKLNKKLSDLSLSGSKQAPAQSTSGLKTTKIKFYYKDDIFALMLKGDTTYKELRSKIAPRIDTDNFKLQTKLFDGSGEEIKTDSQVSNIIQAKLKISVHDI
Consider B1, for which the binding entry in test [1] and in test [2] was “binds” each time.

B2: 6xHis Boi1_(1-300) (domain or fragment, UniProt P38041 1-300)
chain: MSLEGNTLGKGAKSFPLYIAVNQYSKRMEDELNMKPGDKIKVITDDGEYNDGWYYGRNLRTKEEGLYPAVFTKRIAIEKPENLHKSPTQESGNSGVKYGNLNDSASNIGKVSSHQQENRYTSLKSTMSDIDKALEELRSGSVEQEVSKSPTRVPEVSTPQLQDEQTLIQEKTRNEENTTHDSLFSSTADLNLSSESLKNISKSNISTKSLEPSSESVRQLDLKMAKSWSPEEVTDYFSLVGFDQSTCNKFKEHQVSGKILLELELEHLKELEINSFGIRFQIFKEIRNIKSAIDSSSNKL
For the molecule B2, the binding entry in test [3] is reported as “binds”.
